From paper doi:10.1101/2020.11.17.386581
Results are given in words; binding and its absence hold for the method and conditions named. Some binding calls cover weakened binding; strength is not graded here.

Chains of the proteins cited; added tags and fusions are not shown. Residues count along the entry.
UniProt Q07954, residues 20-4544: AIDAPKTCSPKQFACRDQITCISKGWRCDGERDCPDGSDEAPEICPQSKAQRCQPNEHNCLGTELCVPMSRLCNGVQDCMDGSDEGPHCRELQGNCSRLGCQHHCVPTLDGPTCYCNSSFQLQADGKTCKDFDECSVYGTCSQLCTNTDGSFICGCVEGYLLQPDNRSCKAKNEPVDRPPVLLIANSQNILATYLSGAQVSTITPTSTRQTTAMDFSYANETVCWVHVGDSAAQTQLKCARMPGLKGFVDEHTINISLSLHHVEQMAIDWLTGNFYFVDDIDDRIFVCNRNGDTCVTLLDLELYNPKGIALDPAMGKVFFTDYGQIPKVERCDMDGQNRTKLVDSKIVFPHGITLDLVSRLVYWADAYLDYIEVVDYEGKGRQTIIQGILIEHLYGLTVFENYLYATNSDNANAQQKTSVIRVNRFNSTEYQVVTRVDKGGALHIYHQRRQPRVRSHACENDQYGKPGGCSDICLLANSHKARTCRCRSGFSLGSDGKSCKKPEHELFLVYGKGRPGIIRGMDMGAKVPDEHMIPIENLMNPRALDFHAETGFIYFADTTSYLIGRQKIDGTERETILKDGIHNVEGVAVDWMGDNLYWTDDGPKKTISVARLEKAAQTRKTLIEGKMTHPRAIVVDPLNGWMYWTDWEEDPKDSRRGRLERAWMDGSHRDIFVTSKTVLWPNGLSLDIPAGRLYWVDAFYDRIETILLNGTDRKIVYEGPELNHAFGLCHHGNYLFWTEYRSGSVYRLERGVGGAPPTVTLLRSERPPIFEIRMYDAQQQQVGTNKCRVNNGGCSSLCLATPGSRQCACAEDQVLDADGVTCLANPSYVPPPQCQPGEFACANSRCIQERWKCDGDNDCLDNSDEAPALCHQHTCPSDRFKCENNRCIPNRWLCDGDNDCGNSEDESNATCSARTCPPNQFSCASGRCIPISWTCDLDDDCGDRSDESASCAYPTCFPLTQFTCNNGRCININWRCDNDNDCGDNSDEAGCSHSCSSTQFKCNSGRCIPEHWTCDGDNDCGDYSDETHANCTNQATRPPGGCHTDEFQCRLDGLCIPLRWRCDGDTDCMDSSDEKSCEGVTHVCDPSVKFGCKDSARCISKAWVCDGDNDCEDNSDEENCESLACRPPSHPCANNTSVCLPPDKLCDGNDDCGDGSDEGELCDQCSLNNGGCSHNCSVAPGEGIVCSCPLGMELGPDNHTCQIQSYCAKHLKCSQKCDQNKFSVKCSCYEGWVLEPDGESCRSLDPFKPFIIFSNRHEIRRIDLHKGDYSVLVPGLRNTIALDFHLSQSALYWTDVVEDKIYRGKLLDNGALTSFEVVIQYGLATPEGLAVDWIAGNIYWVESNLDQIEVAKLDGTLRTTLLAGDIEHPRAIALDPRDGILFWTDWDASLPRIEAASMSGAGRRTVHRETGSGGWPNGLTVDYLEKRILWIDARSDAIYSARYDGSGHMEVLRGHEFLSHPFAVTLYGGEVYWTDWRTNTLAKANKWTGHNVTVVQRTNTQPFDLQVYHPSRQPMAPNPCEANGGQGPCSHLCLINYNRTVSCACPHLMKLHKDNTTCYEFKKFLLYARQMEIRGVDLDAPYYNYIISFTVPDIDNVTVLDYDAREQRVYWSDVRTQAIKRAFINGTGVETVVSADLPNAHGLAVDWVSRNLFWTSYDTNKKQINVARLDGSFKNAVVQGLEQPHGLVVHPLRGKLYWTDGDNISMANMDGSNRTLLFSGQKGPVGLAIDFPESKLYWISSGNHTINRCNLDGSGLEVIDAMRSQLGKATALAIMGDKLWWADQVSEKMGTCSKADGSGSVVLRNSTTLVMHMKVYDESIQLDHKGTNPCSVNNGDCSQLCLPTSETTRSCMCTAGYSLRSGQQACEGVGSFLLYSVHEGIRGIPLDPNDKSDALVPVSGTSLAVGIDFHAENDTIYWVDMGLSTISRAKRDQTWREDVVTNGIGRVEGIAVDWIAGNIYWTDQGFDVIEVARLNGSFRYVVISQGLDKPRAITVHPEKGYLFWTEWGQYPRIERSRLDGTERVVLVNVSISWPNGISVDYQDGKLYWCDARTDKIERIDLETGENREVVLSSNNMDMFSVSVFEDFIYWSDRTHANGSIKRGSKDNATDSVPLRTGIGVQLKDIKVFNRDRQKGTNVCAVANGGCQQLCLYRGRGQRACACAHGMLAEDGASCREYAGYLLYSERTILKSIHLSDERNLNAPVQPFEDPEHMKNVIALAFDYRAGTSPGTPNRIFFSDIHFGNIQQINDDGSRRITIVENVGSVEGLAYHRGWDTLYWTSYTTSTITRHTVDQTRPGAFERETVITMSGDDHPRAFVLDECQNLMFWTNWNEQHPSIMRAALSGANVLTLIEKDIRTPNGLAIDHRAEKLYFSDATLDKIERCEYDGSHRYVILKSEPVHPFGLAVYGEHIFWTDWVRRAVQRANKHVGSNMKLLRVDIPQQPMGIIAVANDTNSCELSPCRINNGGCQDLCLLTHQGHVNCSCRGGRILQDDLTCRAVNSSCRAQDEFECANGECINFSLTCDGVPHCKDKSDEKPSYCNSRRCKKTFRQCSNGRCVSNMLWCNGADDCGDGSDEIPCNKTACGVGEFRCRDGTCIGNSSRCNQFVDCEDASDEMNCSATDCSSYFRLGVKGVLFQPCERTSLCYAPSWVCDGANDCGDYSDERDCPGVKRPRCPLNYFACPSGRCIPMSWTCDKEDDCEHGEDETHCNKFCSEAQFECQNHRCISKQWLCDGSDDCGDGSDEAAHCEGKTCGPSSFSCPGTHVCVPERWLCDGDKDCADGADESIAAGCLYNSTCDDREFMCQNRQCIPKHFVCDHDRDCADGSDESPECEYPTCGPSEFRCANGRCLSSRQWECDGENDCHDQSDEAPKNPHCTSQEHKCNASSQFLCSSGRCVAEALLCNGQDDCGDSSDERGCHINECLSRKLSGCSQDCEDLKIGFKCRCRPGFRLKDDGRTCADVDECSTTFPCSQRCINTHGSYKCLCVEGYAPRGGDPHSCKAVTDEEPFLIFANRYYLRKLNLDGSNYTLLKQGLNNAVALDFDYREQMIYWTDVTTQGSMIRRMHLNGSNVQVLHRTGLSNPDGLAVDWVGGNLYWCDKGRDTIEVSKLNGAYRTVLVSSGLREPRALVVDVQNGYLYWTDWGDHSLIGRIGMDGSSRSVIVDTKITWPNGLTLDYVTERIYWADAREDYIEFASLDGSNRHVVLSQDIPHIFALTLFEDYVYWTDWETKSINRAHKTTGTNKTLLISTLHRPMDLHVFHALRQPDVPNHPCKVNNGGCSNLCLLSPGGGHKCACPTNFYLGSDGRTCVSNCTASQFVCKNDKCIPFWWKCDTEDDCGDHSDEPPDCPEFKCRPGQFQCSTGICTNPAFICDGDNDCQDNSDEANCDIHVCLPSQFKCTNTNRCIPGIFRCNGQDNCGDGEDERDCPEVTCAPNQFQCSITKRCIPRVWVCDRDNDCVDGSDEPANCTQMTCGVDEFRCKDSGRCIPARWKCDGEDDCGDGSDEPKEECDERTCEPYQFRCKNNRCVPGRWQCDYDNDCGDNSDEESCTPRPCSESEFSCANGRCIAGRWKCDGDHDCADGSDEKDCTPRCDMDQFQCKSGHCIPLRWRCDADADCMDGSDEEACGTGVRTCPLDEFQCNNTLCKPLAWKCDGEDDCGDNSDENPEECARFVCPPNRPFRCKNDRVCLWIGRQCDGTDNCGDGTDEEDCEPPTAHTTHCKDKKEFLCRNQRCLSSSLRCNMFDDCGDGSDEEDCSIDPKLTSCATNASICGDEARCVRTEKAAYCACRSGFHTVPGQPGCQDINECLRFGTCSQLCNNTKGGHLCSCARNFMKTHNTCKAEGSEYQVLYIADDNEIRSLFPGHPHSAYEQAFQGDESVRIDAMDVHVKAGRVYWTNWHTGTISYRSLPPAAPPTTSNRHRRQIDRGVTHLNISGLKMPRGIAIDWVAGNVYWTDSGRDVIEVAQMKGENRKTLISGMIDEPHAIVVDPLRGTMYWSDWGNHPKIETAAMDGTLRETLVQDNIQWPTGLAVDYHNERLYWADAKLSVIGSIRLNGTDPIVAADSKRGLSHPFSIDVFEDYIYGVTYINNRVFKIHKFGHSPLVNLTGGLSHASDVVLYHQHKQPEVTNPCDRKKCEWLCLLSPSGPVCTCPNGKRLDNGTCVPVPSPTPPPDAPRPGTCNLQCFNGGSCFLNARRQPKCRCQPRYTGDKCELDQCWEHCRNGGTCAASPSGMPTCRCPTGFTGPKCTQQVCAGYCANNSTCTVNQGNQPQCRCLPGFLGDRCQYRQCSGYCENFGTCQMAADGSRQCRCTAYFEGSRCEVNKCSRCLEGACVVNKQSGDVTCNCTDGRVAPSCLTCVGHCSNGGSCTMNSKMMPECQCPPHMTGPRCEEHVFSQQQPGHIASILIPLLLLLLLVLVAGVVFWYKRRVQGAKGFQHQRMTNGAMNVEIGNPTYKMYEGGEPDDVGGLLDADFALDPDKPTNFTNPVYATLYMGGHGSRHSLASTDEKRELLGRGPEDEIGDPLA
UniProt P30533, residues 35-357: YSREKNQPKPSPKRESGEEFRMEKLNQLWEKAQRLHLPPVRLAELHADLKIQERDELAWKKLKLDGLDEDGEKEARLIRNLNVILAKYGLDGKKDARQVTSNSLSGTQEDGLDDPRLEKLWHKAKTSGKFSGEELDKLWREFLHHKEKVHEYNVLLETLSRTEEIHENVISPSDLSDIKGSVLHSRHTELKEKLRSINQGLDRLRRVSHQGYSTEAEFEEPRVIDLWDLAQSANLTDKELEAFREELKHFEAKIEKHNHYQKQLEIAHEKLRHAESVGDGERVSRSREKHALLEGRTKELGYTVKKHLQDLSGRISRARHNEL

Legend:
[1] = molecular target: LRP1 of mouse embryonic fibroblasts (MEF) (mouse (endogenous in MEF)) (UniProt Q91ZX7); experiment: radioligand binding
[2] = molecular target: Full-length human LRP1 purified from placenta (human) (UniProt Q07954); experiment: SPR

binding [1]: binds
binding [2]: binds
Substance: Receptor associated protein (RAP) (from UniProt P30533 35-357)
